These are yes or no findings as the source states them, for the method shown. In cells and extracts the contact can be indirect. Some results given as binding are weak or reduced against the parent protein; the word gives no strength. Where a sequence is shown, tags or fusion partners need not be part of it.
Legend:
[1] = molecular target: T1, OPEN STOMATA 1 (OST1), Myc-tagged (Arabidopsis thaliana) (UniProt Q940H6); experiment: co-IP; HA- and Myc-tagged proteins co-transfected in Arabidopsis Col-0 cell suspension protoplasts, harvested 18 h post-transfection; extract immunoprecipitated with anti-Myc antibody (9E10) and Protein G-Sepharose, 4°C; blots probed with anti-HA-POD, then anti-c-Myc
T1 sequence: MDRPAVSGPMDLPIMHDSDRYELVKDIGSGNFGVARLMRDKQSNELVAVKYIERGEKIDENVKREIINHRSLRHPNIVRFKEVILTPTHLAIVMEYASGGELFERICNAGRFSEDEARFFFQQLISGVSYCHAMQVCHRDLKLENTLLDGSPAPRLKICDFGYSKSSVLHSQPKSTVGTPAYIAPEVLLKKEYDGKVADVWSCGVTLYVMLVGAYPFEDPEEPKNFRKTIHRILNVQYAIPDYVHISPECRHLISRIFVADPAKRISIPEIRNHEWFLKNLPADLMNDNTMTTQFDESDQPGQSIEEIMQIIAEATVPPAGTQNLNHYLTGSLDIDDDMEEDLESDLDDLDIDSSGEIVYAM

Protein sequences, listed by entry. Tags and fused reporters are not part of them.
UniProt Q94BT6: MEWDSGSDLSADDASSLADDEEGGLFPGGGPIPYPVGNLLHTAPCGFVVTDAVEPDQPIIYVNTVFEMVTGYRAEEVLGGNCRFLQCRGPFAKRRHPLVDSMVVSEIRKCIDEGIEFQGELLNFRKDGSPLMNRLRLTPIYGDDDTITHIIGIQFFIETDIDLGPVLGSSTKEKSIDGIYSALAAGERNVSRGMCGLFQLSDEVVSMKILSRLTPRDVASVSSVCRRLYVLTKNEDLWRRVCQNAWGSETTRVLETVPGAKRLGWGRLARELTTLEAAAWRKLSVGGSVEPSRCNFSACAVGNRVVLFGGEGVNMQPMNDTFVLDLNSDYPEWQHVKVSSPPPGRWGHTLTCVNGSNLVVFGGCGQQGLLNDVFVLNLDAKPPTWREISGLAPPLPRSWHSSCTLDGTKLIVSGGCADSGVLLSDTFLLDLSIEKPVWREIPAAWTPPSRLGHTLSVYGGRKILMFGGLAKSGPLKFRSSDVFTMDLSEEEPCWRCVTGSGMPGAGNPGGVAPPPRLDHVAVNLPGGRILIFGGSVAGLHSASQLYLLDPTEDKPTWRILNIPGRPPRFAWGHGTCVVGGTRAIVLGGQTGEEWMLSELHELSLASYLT

[2] = molecular target: T2, TIMING OF CAB2 EXPRESSION 1 (TOC1), epitope-tagged (Arabidopsis thaliana) (UniProt Q9LKL2); experiment: as above
T2 sequence: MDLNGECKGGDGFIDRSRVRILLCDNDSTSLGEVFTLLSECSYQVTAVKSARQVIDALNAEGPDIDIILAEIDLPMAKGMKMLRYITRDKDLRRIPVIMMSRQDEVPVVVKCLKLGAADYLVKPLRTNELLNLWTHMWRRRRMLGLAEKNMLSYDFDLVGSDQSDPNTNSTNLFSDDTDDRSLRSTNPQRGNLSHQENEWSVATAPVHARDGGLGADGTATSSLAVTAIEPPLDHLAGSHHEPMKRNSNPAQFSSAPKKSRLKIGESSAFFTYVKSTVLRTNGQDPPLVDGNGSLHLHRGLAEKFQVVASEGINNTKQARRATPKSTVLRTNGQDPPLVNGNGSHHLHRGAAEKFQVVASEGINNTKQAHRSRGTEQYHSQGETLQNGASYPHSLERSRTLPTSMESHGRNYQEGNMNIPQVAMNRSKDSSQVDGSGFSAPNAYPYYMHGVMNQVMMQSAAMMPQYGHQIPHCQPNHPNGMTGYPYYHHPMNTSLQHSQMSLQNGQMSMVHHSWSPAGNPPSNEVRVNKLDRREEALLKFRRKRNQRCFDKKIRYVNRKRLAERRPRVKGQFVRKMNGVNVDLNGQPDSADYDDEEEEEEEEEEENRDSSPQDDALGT

ZEITLUPE (ZTL), HA-tagged (from UniProt Q94BT6 1-609)
binding [1]: binds
binding [2]: binds

From paper PMC8924544
